Entries after “also recorded” stand apart in the source; their conditions may differ. Like-named read-outs stand apart in the source and are kept apart here. For some of these results: The name of at least one read-out is uncertain. For some of these results: For at least one compound, name, drawing or mass did not settle the structure.
How the values were obtained:
non-Hodgkin's lymphoma = details: cited from earlier work
[1] = system: breast and ovarian cancer cell lines; details: 2 mg/kg, subcutaneous injection; cited from earlier work
prostate tumors [2] = test: Preclinical: radiosensitization of prostate tumors in vivo in xenograft models
prostate cancer tumors = test: Preclinical: growth of well-established prostate cancer tumors in mice; details: i.p. and p.o.
PSA [3] = test: Phase 1 trial: PSA in the subset of patients with prostate cancer; type: in vivo, human
From the text: There was no evidence of a selenite dose response relationship, but patient numbers were too small and the patients too heterogeneous to draw a definitive conclusion about the presence or absence of a dose response relationship. Of note, patients were maintained on whatever ADT they were on before study entry, as discontinuation of ADT could have been even more of a confounding variable.

AR = AR expression and activity in LAPC-4 and LNCaP prostate cancer cells; type: cell-based
prostate tumors [4] = details: LAPC-4 and PC3 tumors; cited from earlier work
[5] = system: hormone sensitive and CRPC cells; test: Preclinical: radiosensitization of prostate cancer cells; type: cell-based; details: in vitro and in vivo
[6] = system: LAPC-4 and androgen-independent DU 145 cells; details: cells pre-treated with selenite; cited from earlier work
human cancer cells lines = details: variety of human cancer cell lines in vitro; cited from earlier work
PSA [7] = test: R1881-induced PSA expression in LAPC-4 cells; type: cell-based; details: LAPC-4 cells in hormone-depleted medium, 24 h
[8] = system: tumor in irradiated field; test: Phase 1 trial: tumor response in irradiated field (imaging); type: in vivo, human
From the text: All but one patient received palliative radiation therapy to symptomatic bone metastases. Quantitation of response in bone is difficult and imprecise. Furthermore, patients were imaged as per standard of care, using a variety of imaging modalities, including bone scan, which is not applicable to RECIST scoring. […] There was no apparent dose response relationship.

prostate cancer cells = test: Preclinical: selenite-induced apoptosis, prostate cancer cells vs normal prostate epithelial cells; type: cell-based; details: preclinical studies
[9] = Phase 1 trial: population PK model (NONMEM, 1-compartment, oral absorption) and simulations
[10] = Phase 1 trial: Brief Pain Inventory; type: in vivo, human; details: most patients, selenite with RT
Protocol: They also completed another pain inventory.
The pain inventory captured four categories of pain as follows: worst pain in last 24 hours, least pain in last 24 ours, average pain and pain right now. Pain was scored using a 10 point scale, on which 0 was no pain and 10 was severe pain. […] A change of at least one point was felt to be clinically meaningful.

[11] = Patient #2, prostate carcinoma, 15 months post treatment, with radiotherapy

## O=[Se](O)O [sodium selenite, Sodium selenite pentahydrate]
non-Hodgkin's lymphoma; 0.2 mg/kg/day for 30 days, newly diagnosed non-Hodgkin's lymphoma
  outcome with adjuvant sodium selenite vs standard chemotherapy alone: down-regulated levels of Bcl-2 and improved clinical outcomes
non-Hodgkin's lymphoma; 0.2 mg/kg/day for seven days, lymphoma
  outcome of addition of selenite to chemotherapy: significant increase in the percentage of apoptotic lymphoma cells and clinical response
[1]
  tumor growth: inhibit the tumor growth
Prostate tumors [2]
  radiosensitization of tumors in vivo: radiosensitizes prostate tumors in vivo
Prostate tumors [2]; listed as Sodium selenite
  radiosensitization of tumors in vivo: radiosensitized tumors in vivo
Prostate tumors [2]; listed as selenite
  radiosensitization of tumors in vivo: radiosensitized tumors in vivo
Prostate cancer tumors
  growth of well-established prostate cancer tumors: significant growth inhibition
PSA [3]; patient 2, 5.5 mg cohort, FU visit 2 M vs Day 1
  PSA Change (direction): ↓
PSA [3]; patient 3, 5.5 mg cohort, FU visit 2.25 M vs Day 1
  PSA Change (direction): ↑
PSA [3]; patient 4, 11 mg cohort, FU visit 3.25 M vs Day 1
  PSA Change (direction): ↓
PSA [3]; patient 5, 11 mg cohort, FU visit 4 M vs Day 1
  PSA Change (direction): ↓
PSA [3]; patient 6, 11 mg cohort, FU visit 4 M vs Day 1
  PSA Change (direction): ↓
PSA [3]; patient 7, 16.5 mg cohort, FU visit 2.25 M vs Day 1
  PSA Change (direction): ↑↑
PSA [3]; patient 8, 16.5 mg cohort, FU visit 2.75 M vs Day 1
  PSA Change (direction): ↓
PSA [3]; patient 9, 16.5 mg cohort, FU visit 3.25 M vs Day 1
  PSA Change (direction): ↓
PSA [3]; patient 10, 33 mg cohort, FU visit 3 M vs Day 1
  PSA Change (direction): ↓
PSA [3]; selenite 5.5-33 mg with RT
  patients with prostate cancer with a decrease in PSA: Seven out of nine
AR
  AR expression and activity: inhibit AR expression and activity
Prostate tumors [4]
  radiosensitization in vivo: radiosensitization was also observed in vivo
[5]
  radiosensitization: potent radiosensitizer
[6]
  sensitivity to y-irradiation, clonogenic survival assays: increased sensitivity to y-irradiation
Human cancer cells lines
  cell growth and apoptosis: inhibiting cell growth and inducing apoptosis
PSA [7]
  R1881-induced PSA expression: inhibits
[8]; [11]
  response in the left hip on Tc-99m MDP bone scan: near complete response
  response in the left shoulder on Tc-99m MDP bone scan: partial response
[8]; most patients, selenite with RT, listed as selenite
  disease within the RT fields, in words: stabilization of disease within the RT fields; also recorded: stabilization of disease within the radiation therapy field(s)
[8]; of the evaluable patients (n=13)
  patients with stable disease (SD) within the irradiated field: eight
Prostate cancer cells
  sensitivity of prostate cancer cells to selenite-induced apoptosis vs normal prostate epithelial cells: more sensitive to selenium (sodium selenite)-induced apoptosis than normal prostate epithelial cells
Prostate cancer cells; listed as selenite
  sensitivity of prostate cancer cells to selenite-induced apoptosis vs normal prostate epithelial cells: more sensitive to selenite-induced apoptosis than normal prostate epithelial cells
[9]; 5.5 mg dose level, oral
  time at which Cmax occurred: 3.65 h
[9]; 11 mg dose level, oral
  time at which Cmax occurred: 4.05 h
[9]; 16.5 mg, oral
  time at which Cmax occurred: 4.2 h
[9]; 33 mg dose level, oral
  time at which Cmax occurred: 4.35 h
[9]; 49.5 mg, oral
  time at which Cmax occurred: 4.4 h
[9]; overall, varied with dose level
  time at which Cmax occurred: approximately 4 hours
[10]
  pain (pain inventory), in words: generalized improvement in pain in all four categories at both time points
[10]; listed as selenite
  pain (pain inventory), in words: improvement in their pain inventory scores; also recorded: marked improvement in pain; also recorded: decrease in pain indices

Reference: US20210046106A1, “METHODS OF TREATING CANCER WITH ANDROGEN DEPRIVATION THERAPY IN COMBINATION WITH AN INHIBITOR OF THE SP1 TRANSCRIPTION FACTOR” (The Board of Trustees of the Leland Stanford Junior …, priority 2019, published 2021)
